Assay results as given in patent publication US20140235544A1, “DISEASE TREATMENT VIA ANTIMICROBIAL PEPTIDES OR THEIR INHIBITORS” (priority 2013, published 2014).
For at least one compound, name, drawing or mass did not settle the structure.

Assays:
EAE in C57BL/6 mice = experiment: MOG-peptide induced Experimental Autoimmune Encephalitis (EAE) model; assay type: in vivo, mouse
BETATC beta cell line = experiment: Thymidine incorporation cell proliferation assay; assay type: cell-based, mouse; details: 2 microgram/ml, 3.5 days
Protocol: Murine beta cell line were treated for 3.5 days with LL-37 at 2 microgram/ml (red/dark bars) and compared to PBS control ([…]). Cell proliferation was estimated by measuring [3(H)]-thymidine incorporation and was expressed as percent of control untreated cells. A representative experiment is shown.
The antimicrobial peptides human cathelicidin LL-37: […] was obtained from AnaSpec, USA (Catalogue numbers: 61302). Cathelicidin at 2 ug/ml was added to the plate and compared with control.
Cell proliferation was evaluated by measuring [3(H)]-thymidine incorporation into DNA. Cells were pulsed with [3(H)]-thymidine (1 microcurie/mL, ICN, Irvine, Calif.) for 1 hour, at 37 degrees centigrade. After incubation, cells were washed 3 times with PBS, incubated for 15 minutes at room temperature in 5% trichloroacetic acid and solubilized in 1% triton X-100. The radioactivity incorporated into the cells was counted in the [3(H)]-window of a Tricarb liquid scintillation counter. Mean values were determined from measurements of triplicate samples under each experimental condition for each experiment. Thymidine incorporation was determined as number of disintegrations per minute (DPM) per mg of protein.

For CC[C@H](C)[C@H](NC(=O)[C@H](CCCCN)NC(=O)[C@H](CCC(=O)O)NC(=O)[C@H](CCCCN)NC(=O)[C@H](CO)NC(=O)[C@H](CCCCN)NC(=O)[C@H](CCCNC(=N)N)NC(=O)[C@H](Cc1ccccc1)NC(=O)[C@H](Cc1ccccc1)NC(=O)[C@H](CC(=O)O)NC(=O)CNC(=O)[C@H](CC(C)C)NC(=O)[C@@H](N)CC(C)C)C(=O)NCC(=O)N[C@@H](CCCCN)C(=O)N[C@@H](CCC(=O)O)C(=O)N[C@@H](Cc1ccccc1)C(=O)N[C@@H](CCCCN)C(=O)N[C@@H](CCCNC(=N)N)C(=O)N[C@H](C(=O)N[C@H](C(=O)N[C@@H](CCC(N)=O)C(=O)N[C@@H](CCCNC(=N)N)C(=O)N[C@H](C(=O)N[C@@H](CCCCN)C(=O)N[C@@H](CC(=O)O)C(=O)N[C@@H](Cc1ccccc1)C(=O)N[C@@H](CC(C)C)C(=O)N[C@@H](CCCNC(=N)N)C(=O)N[C@@H](CC(N)=O)C(=O)N[C@@H](CC(C)C)C(=O)N[C@H](C(=O)N1CCC[C@H]1C(=O)N[C@@H](CCCNC(=N)N)C(=O)N[C@H](C(=O)N[C@@H](CCC(=O)O)C(=O)N[C@@H](CO)C(=O)O)[C@@H](C)O)C(C)C)[C@@H](C)CC)C(C)C)[C@@H](C)CC [mCRAMP], the “deaths by day 60” value (EAE in C57BL/6 mice; 2 mg/Kg and 0.2 mg/Kg i.p. 3 times a week through day 48) was “none of the mice in either of the treatment groups died”, the “protection from fatal EAE at late stage of disease” value (EAE in C57BL/6 mice; i.p. 3 times a week, vs PBS) was “protected mice from fatal EAE” and the “beta cell proliferation ([3(H)]-thymidine incorporation) vs PBS control” value (BETATC beta cell line) was “slight increase in cell proliferation”.
